Assay results as given in paper PMC5594048.
Results are given in words; binding and its absence hold for the method and conditions named. Some binding calls cover weakened binding; strength is not graded here. Where a sequence is shown, tags or fusion partners need not be part of it.

By UniProt entry, the sequences of proteins in these tests, tags left out.
UniProt Q39026: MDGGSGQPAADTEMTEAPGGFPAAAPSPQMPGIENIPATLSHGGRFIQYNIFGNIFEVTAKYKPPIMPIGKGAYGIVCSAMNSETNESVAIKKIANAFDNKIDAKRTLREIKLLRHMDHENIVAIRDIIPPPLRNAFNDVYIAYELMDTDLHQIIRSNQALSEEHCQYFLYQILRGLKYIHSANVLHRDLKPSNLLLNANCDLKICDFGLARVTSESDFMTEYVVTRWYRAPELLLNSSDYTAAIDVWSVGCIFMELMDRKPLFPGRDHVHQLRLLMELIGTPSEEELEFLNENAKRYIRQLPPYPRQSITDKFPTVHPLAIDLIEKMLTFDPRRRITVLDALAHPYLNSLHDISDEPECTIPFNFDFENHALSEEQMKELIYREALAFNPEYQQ

Target: Mitogen-activated protein kinase 6 (MPK6), yeast two-hybrid fusion (Arabidopsis thaliana) (UniProt Q39026)
Assay: two-hybrid; Gal4 reporter-based ProQuest two-hybrid system (Invitrogen), pDEST22/pDEST32; pairwise tests; growth on SD-Leu/-Trp/-His or SD-Leu/-Trp/-His/-Ade

B1: PRP Homolog 1 (PH1), full length ORF, yeast two-hybrid fusion (protein, UniProt Q6NN02 1-125)
chain: MFFDTKVLNYPTIHKSISMASTMQRTSSSAASNERQLSQLQRRAPSLMIKPTSFSNWNVAIPLLSPLAPSLTSSFDQSHVPPPQNKTEIPVEEEVKKTPVFKKWQHPASPFCYEPTTFVPPFIQV
  binding: binds
